Experiment [1] concerns the target CaARF L492A/L493A (mutated in the LPLLPS EAR-like motif), MBP-tagged (Chlorokybus atmophyticus). Kind of experiment: pull-down; co-purification: MBP-tagged CaARF (wt or mutants, 90 ug) mixed with His-tagged AtTPL202 (or mutant, 70 ug) for 1 h at 4 C in CAPS 20 mM pH 9.6, Tris-HCl 100 mM pH 8, NaCl 50 mM, TCEP 1 mM; complexes held through MBP on Dextrin-Sepharose, washed, eluted with 10 mM maltose, SDS-PAGE; both purified.

The target of experiment [2] is CaARF L523S/F524S (mutated in the KLFG BRD motif), MBP-tagged (Chlorokybus atmophyticus). The description is as above.

No constants are given. Whether binding was seen depends on the method and setting. Binding seen in cells or lysates may run through a third protein. Binding calls can cover weak binding; strength is not graded here. Sequences can lack the tags named with a protein.

B1: A. thaliana TOPLESS N-terminal region (AtTPL202), His-tagged (domain or fragment, UniProt Q94AI7 3-184)
chain: SLSRELVFLILQFLDEEKFKETVHKLEQESGFFFNMKYFEDEVHNGNWDEVEKYLSGFTKVDDNRYSMKIFFEIRKQKYLEALDKHDRPKAVDILVKDLKVFSTFNEELFKEITQLLTLENFRENEQLSKYGDTKSARAIMLVELKKLIEANPLFRDKLQFPTLRNSRLRTLINQSLNWQHQ
Take B1: the binding entry in experiment [1] and in experiment [2] was “binds” throughout.

The values are drawn from article PMC6797205.
